In patent publication US10767160B2, “Methods for modulating production profiles of recombinant proteins” (ARES TRADING S.A., priority 2015, dated 2020):

Tested on: CHO-S cells expressing IgG1 mAb1
Test: Fed-batch culture in Spin Tubes, host cells expressing mAb1
Assay type: cell-based, Chinese Hamster
Conditions: 8.5 μM
Procedure: Assays were performed with 2 CHO cell lines: • CHO-S cells expressing IgG1 mAb1, herein “Cells mAb1” or “mAb1 cells”. “mAb1” is a fully human monoclonal antibody directed against a soluble protein. Its isoelectric point (pI) is about 8.20-8.30. • CHO-K1 cells expressing IgG1 mAb2, herein “Cells mAb2” or “mAb2 cells”. “mAb2” is a humanised monoclonal antibody directed against a receptor found on the cell membrane. Its isoelectric point (pI) is about 9.30. 2) Cell Expansion
Cells expressing mAb2 were inoculated at 0.2×10^6 cells per millilitre (mL), whereas cells expressing mAb1 were inoculated at 0.3×10^6 cells per mL.
All assays were performed in fed-batch culture. The host cells were cultured in fed-batch system either in microplates (“Deep well plate”) or in Spin Tubes®, and incubated at 36.5° C., 90% relative humidity, 5% CO2 and 320 rpm shaking during 14 days.
Viable cell density and viability were measured with the Guava easyCyte® flow cytometer or with the ViCell.
Antibody titres were measured with the fortêBIO Octet® or with Biacore C®.
Glycosylation profiles were established by capillary gel electrophoresis with laser-induced fluorescence (CGE-LIF). Dosages of aggregates and fragments were performed respectively via Size Exclusion High Performance Liquid Chromatography (SE-HPLC) and SDS-capillary gel electrophoresis.

Structure (SMILES): Nc1c(S(=O)(=O)O)cc(Nc2ccc(Nc3nc(Cl)nc(Nc4ccccc4S(=O)(=O)O)n3)c(S(=O)(=O)O)c2)c2c1C(=O)c1ccccc1C2=O [Cibacron Blue 3GA]
- quality of antibody mAb1 (glycosylation profile): not affected
- percentage of fragments and aggregates (mAb1): slightly decreased
